Out of some 2,400 compounds screened, about 20 (0.8%) were called active.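 The calls were made as follows: active = AC50 no more than ten times the highest tested concentration, or full inhibition at every dose giving a flat fit (cut at about 30 µM in these data); inconclusive = flat fit with activity between 30% and 70%, or poor-quality invalid fit; inactive = AC50 more than ten times the top tested dose.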 This is one part of the list.

This experiment is described as follows: inhibitors of ADP-Glo detection reagents, dose response, artefact control for GSK-3a inhibitor project, biochemical, luminescence, cell-free, homogeneous (AID 463205).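 Also: kinase-free counter-screen against the ADP-Glo detection reagents only; potency is for inhibitors that reduce the luminescence signal.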 To be noted: 5 uM ADP.
As usually defined, the AC50 is the midpoint of the concentration-response curve, whichever way the signal moves. For the compound `Cn1c(=O)c2c(nc(NCC3CCCO3)n2Cc2ccccc2)n(C)c1=O` (stereo not given), the AC50 is inactive: > 30 µM.
To `O=[N+]([O-])c1ccc(-c2nnc(CNC3CCCC3)o2)cc1` belongs inactive: > 30 µM; to `Cc1c(O)ccc2c3c(c(=O)oc12)CCC(C)C3` (stereo not given), inactive: > 30 µM.
With `O=C(Nc1cccc(-c2cnc3ccccc3n2)c1)c1cccc(NC(=O)c2ccco2)c1`, the AC50 is inactive: > 30 µM.
For `COC(=O)C1=C(C)N(CC(C)C)C(=O)/C1=C\c1cccs1`, the AC50 was inactive: > 30 µM.
Turning to `Cc1ccnc(NC(=O)CN2C(=O)c3ccccc3S2(=O)=O)c1`, the AC50 is inactive: > 30 µM.
As for `NNc1nc2sc3c(c2c(=O)[nH]1)CCc1ccccc1-3`, the AC50 is inactive: > 30 µM.
Under `Nc1c(C(=O)O)cnc2c(-c3ccc(Cl)cc3)cnn12` stands inactive: > 30 µM; under `O=C(COc1ccc(-n2cnnn2)cc1)Nc1ccc(F)c(F)c1F`, inactive: > 30 µM.
To `CC(C)Nc1nc(NC(C)C)nc(C(=O)OCCO)n1` belongs inactive: > 30 µM; to `COc1ccc(NC(=O)c2nnn(Cc3ccc(SC)cc3)c2N)c(OC)c1`, inactive: > 30 µM; to `COc1ccc(-c2ncncc2-c2ccc(Cl)cc2)c(O)c1`, inactive: > 30 µM.
As for `COc1ccc([N+](=O)[O-])cc1NC(=O)CCN1CCN(C)CC1`, the AC50 is inactive: > 30 µM.
In the case of `Fc1ccccc1-c1n[nH]c(=S)n1/N=C/c1c[nH]c2ccccc12`, the AC50 was inactive: > 30 µM.
Under `CCC(Sc1ccc2nnc(-c3ccc(OC)c(OC)c3)n2n1)C(=O)O` (stereo not given) stands inactive: > 30 µM; under `O=c1[nH]nnc2c1sc1nc(N3CCOCC3)c3c(c12)CCCC3`, inactive: > 30 µM.
Under `Cc1ccc2c(c1)COc1c3ccc(C(=O)N4CCCCC4)cc3nn1-2` stands inactive: > 30 µM; under `COc1cc(NC(=O)c2cc([N+](=O)[O-])ccc2NC(=O)CNC2CCCCC2)cc(OC)c1`, inactive: > 30 µM.
For the compound `COc1ccccc1/C=N/NC(=O)c1nnn(-c2nonc2N)c1-c1cccs1`, the AC50 is inactive: > 30 µM.
On to `CC(=O)Nc1cccc(-c2csc(Nc3ccc(C)cn3)n2)c1`, for which the AC50 was inactive: > 30 µM.
To `COCCOC(=O)c1[nH]c2c(c1C)C(=O)CC(c1cc(OC)c(OC)c(OC)c1)C2` (stereo not given) belongs inactive: > 30 µM; to `CCN1CCN(c2c(Cl)cccc2NC(=O)c2cc3ccccc3o2)CC1`, inactive: > 30 µM; to `Cc1cn(C2OC(CC(=O)Oc3ccccc3)C(O)C2O)c(=O)[nH]c1=O` (stereo not given), inactive: > 30 µM.
To `O=C(O)COc1ccccc1/C=N/NC(=O)CSc1nnc(SCc2ccccc2)s1` belongs inactive: > 30 µM; to `O=C(CSc1nnc(SCC(=O)c2ccco2)s1)c1ccco1`, inactive: > 30 µM; to `Cn1cnnc1SCC(=O)Nc1ccc(Cl)cn1`, inactive: > 30 µM.
With `CCOc1ccccc1C1N(c2ccc(OC)cc2)C(=O)C2CCCN21` (stereo not given), the AC50 is inactive: > 30 µM.
On to `Cc1nc2ccc(-c3ccccc3)cc2o1`, for which the AC50 was inactive: > 30 µM.
For the compound `Cc1ccc(-c2noc(CSc3nnnn3-c3ccccc3)n2)cc1`, the AC50 was inactive: > 30 µM.
Under `CCOc1ccc(-c2nnc(N)s2)cc1` stands inactive: > 30 µM; under `O=C(Nc1cccc(-c2nc3cccnc3s2)c1)c1cccnc1Cl`, inactive: > 30 µM.
With `CS(=O)(=O)N1CCN(c2ccccc2NC(=O)c2ccc(Br)o2)CC1`, the AC50 is inactive: > 30 µM.
Under `COC(=O)c1cn(C(=O)c2ccc(Cl)cc2)c2ccccc12` stands inactive: > 30 µM; under `N#Cc1c(-c2ccncc2)c2c([nH]c1=O)-c1ccccc1OC2`, inactive: > 30 µM.
To `CCc1ccc(C2CC(c3ccc(F)cc3)Nc3nc(N)nn32)cc1` (stereo not given) belongs inactive: > 30 µM; to `CCOC(=O)c1nn(-c2ccc(Cl)cc2)c2nc(Nc3ccccc3)cc(=O)n12`, inactive: > 30 µM; to `Nc1cccc(C(=O)O)c1`, inactive: > 30 µM.
Regarding `Cc1cccc(N=Nc2c(O)[nH]c3ccc(F)cc23)c1`, the AC50 is inactive: > 30 µM.
Under `Cc1ccc(N=CC2=C(O)CC(C)(C)CC2=O)nc1` stands inactive: > 30 µM; under `Cc1nc(N)nc(-c2ccccc2O)n1`, inactive: > 30 µM; under `O=Cc1cn(-c2ccccc2)nc1-c1cccnc1`, inactive: > 30 µM.
Under `C=CCOc1ccc(/C=N/n2cncn2)cc1OC` stands inactive: > 30 µM; under `CC(C)(C)OC(=O)N1CCN(C(=O)c2[nH]cnc2C(=O)Nc2ccon2)CC1`, inactive: > 30 µM.
To `CCn1ccc(C(=O)Nc2ccsc2C(=O)OC)n1` belongs inactive: > 30 µM; to `Cc1c(C(=O)OCCOC(C)C)[nH]c2c1C(=O)CC(C)(C)C2`, inactive: > 30 µM.
`COc1ccc(-c2ncncc2-c2ccccc2)c(O)c1`: the AC50 was inactive: > 30 µM.
In the case of `O=c1[nH]cccc1-c1nc2ccccc2[nH]1`, the AC50 was inactive: > 30 µM.
Turning to `Cc1ccc(C2C(C#N)=C(N)Oc3nc(-c4ccccc4)[nH]c32)o1` (stereo not given), the AC50 was inactive: > 30 µM.
As for `Brc1ccccc1C1=Nn2c(nnc2-c2ccccc2)SC1`, the AC50 is inactive: > 30 µM.
Regarding `C=CCNc1nc(N)c([N+](=O)[O-])c(N2CCCCCC2)n1`, the AC50 was inactive: > 30 µM.
To `O=S(=O)(Nc1ccc(-c2nnc(SCc3ccc(Cl)cc3)o2)cc1)c1ccccc1` belongs inactive: > 30 µM.
To `CCNc1nc(NCC)nc(C(=O)OCCO)n1` belongs inactive: > 30 µM; to `CCCOc1ccccc1NC(=O)Nc1ccccc1Cl`, inactive: > 30 µM; to `CCN1CCN(c2nc(Nc3ccc(OC)cc3)nc(N)c2[N+](=O)[O-])CC1`, inactive: > 30 µM.
With `COc1cccc(Nc2ncnc3nc[nH]c23)c1`, the AC50 was inactive: > 30 µM.
As to `CCN1/C(=C/c2ccc3cc(C)ccc3[n+]2CC)Sc2ccccc21`, the AC50 is inactive: > 30 µM.
As to `Cc1cc(C)c[n+](C2=C([O-])c3ccccc3C(=O)/C2=N\S(=O)(=O)c2cccs2)c1`, the AC50 is inactive: > 30 µM.
To `CCCOc1ccc(-c2c(C(=O)N/N=C(\C)c3cccnc3)nnn2-c2nonc2N)cc1` belongs inactive: > 30 µM.
Turning to `Cc1ccnc(NC(=O)CCC(=O)N(CC(=O)NCc2ccccc2)Cc2ccc(F)cc2)c1`, the AC50 was inactive: > 30 µM.
To `CCOc1ccc(S(=O)(=O)c2c(C(=O)c3ccc(C)cc3)cnc3cc4c(cc23)OCCO4)cc1` belongs inactive: > 30 µM.

Source of the values: PubChem BioAssay AID463205 (Broad Institute, 2010).
